Among all 320,000 compounds or so, about 22,000 (6.9%) were called active. The inconclusive results got no clear call from the source; some entries with a clear call stand among them for comparison. Calls come from the whole dose curve; as a rule, active = well fitted inhibition curve with a large enough effect; inconclusive = small, poorly fitted or top-dose-only effect, or another doubt; inactive = no such curve, though single readings can be large or run the other way. A potency beside an inconclusive call is a rough fit, not a confirmed value.
Assay: Primary qHTS for delayed death inhibitors of the malarial parasite plastid, 96 hour incubation
Conditions: P. falciparum luciferase reporter growth; series mostly up to 28.7 µM
Outline: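 Luminescence readout: decreased luciferase signal marks inhibited growth of reporter-expressing P. falciparum in infected red cells (2% hematocrit, 0.05% parasitemia final), exposed to compound two generations (96 h, 37 C, 5% CO2).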
% is set by controls: 0 for no effect and ±100 for the full control effect; potency is the fitted concentration of half-maximal effect.

Compound	Potency	activity change, negative = inhibition
COC(=O)C1=C(Nc2ccc(C)cc2)C=C(C)C(C(=O)OC)C1c1ccc(OC)cc1 (stereo not drawn)	inconclusive: 13.1 µM [inhibitor, partial curve, poor fit]	–
CCO[C@@H]1OC(C(=O)N2CCN(Cc3ccccc3)CC2)=C[C@H](c2csc3ccccc23)[C@H]1CCCO	active: 6.57 µM	–
CCCCn1c(O)c(/C=C/C=C/C=Nc2ccccc2)sc1=S	inconclusive: 13.1 µM [inhibitor, partial curve, poor fit]	–
O=C(CN1CCCc2ccccc21)NCCc1ccc(F)cc1	inconclusive: 8.28 µM [inhibitor, partial curve, poor fit]	–
CCCn1c(Sc2nc3c(c(=O)[nH]c(=O)n3C)n2CCC)nc2c1c(=O)[nH]c(=O)n2C	inconclusive: 0.0066 µM [inhibitor, full curve, poor fit]	–
COc1ccc([C@H]2CC(=O)C=C(c3cccc(C(F)(F)F)c3)C2)cc1	inconclusive: 18.5 µM [inhibitor, single point]	–
O=S(=O)(Nc1ccc(-c2ccc3nncn3n2)cc1)c1cccc(F)c1	inactive	–
Cc1nn(C(C)C(=O)NCCCN2CCCCCC2)c(=O)c2c1sc1ccccc12 (stereo not drawn)	inconclusive: 16.5 µM [inhibitor, single point]	–
COC(=O)c1cc(C(=O)N2CCN(c3cccc(Cl)c3)CC2)cc([N+](=O)[O-])c1	inactive	–
Cc1ccc(/C(O)=C/c2nc3cc(C)ccc3oc2=O)cc1	inconclusive: 13.1 µM [inhibitor, partial curve]	–
Cc1cc(Cl)ccc1C(=O)C1CCCN(C(=O)c2n[nH]c3c2CCCC3)C1 (stereo not drawn)	inconclusive: 11.7 µM [inhibitor, partial curve]	–
Cn1nnc2ccccc2c1=O	inconclusive: 0.0262 µM [inhibitor, full curve, poor fit]	–
Nc1nc2c(s1)COc1ccccc1-2	inactive	–
Cc1ccnc(NC(=O)C2CCN(S(=O)(=O)c3ccc4c(c3)CC(C)N4C(=O)C3CCC3)CC2)c1 (stereo not drawn)	inconclusive: 7.38 µM [inhibitor, partial curve, poor fit]	–
Cc1ccc(C)c(Cn2c(=O)n(CCCC(=O)NCc3ccco3)c(=O)c3ccccc32)c1	inconclusive: 5.22 µM [inhibitor, partial curve, poor fit]	–
O=C(CN1CCN(c2ccccn2)CC1)NCCc1ccccc1	inconclusive: 2.94 µM [inhibitor, partial curve, poor fit]	–
CCC(C)NC(=O)c1cc2c(=O)n3cccc(C)c3nc2s1 (stereo not drawn)	inactive	–
Cc1[nH]c(C)c(S(=O)(=O)NCC(C)c2ccccc2)c1C(=O)N1CCCCC1 (stereo not drawn)	inconclusive: 14.7 µM [inhibitor, partial curve, poor fit]	–
CCC(NC(=O)CSc1nnnn1C1CC1)c1ccc(Br)cc1 (stereo not drawn)	inconclusive: 18.5 µM [inhibitor, single point]	–
OCCC1CN(CC2CC2)CCN1Cc1ccc(F)c(F)c1 (stereo not drawn)	active: 13.1 µM	–
COc1ccc(CNC(=S)Nc2ccc(F)c(Cl)c2)cc1OC	inactive	–
Fc1cccc(Cl)c1/C=N/Nc1ccccn1	inactive	–

Compound	Potency	activity change, negative = inhibition
CCn1cc(/C=N/NS(=O)(=O)c2ccc(C)cc2)c(C)n1	inconclusive: 3.29 µM [inhibitor, single point]	–
CCN(CC)S(=O)(=O)c1ccc(NC2c3ccccc3C(=O)N2Cc2ccco2)cc1 (stereo not drawn)	inconclusive: 9.28 µM [inhibitor, single point]	–
COc1ccc(-c2nc(NC(=O)CSc3nnc4ccccn34)ns2)cc1	inconclusive: 11.7 µM [inhibitor, partial curve, poor fit]	–
CCc1cccc(CC)c1NC(=S)N(CCN(C)C)C(C)c1cccnc1 (stereo not drawn)	inconclusive: 13.1 µM [inhibitor, single point]	–
CCOc1ccc(-c2c(C(=O)N/N=C/c3sccc3C)nnn2-c2nonc2N)cc1	inactive	–
COCC(C)NC(=O)c1cc(-c2cccc(OC)c2)on1 (stereo not drawn)	inconclusive: 5.86 µM [inhibitor, partial curve, poor fit]	–
NS(=O)(=O)c1ccc(O)c(N2C(=O)c3cccc4c(C(=O)O)ccc(c34)C2=O)c1	inactive	–
CCC/C(=C1/c2ccccc2C(=O)N1c1ccccc1)c1ccc2c(c1)OCCO2	inconclusive: 16.5 µM [inhibitor, single point]	–
O=C(CCc1ccccc1)N/N=C/c1cc(Br)ccc1O	active: 6.57 µM	–
Cc1ccc(NC(=O)C(=O)Nc2ccc(C)cn2)nc1	inconclusive: 18.5 µM [inhibitor, single point]	–
CC1=NN(C(=O)c2ccco2)C(O)(c2ccccc2)C1 (stereo not drawn)	inconclusive: 3.7 µM [inhibitor, partial curve]	–
COc1ccc(CCNC(=O)c2cccc(S(=O)(=O)N3CCCC3)c2)cc1	inconclusive: 3.7 µM [inhibitor, partial curve, poor fit]	–
Cc1csc(SCC(=O)NC(C)c2ccc(F)cc2)n1 (stereo not drawn)	inactive	–
Cc1ccn2c(=O)nc(SCC(=O)N3CCCCC3)nc2c1	inconclusive: 18.5 µM [inhibitor, single point]	–
COc1ccc(N(C(=O)c2cccnc2)S(=O)(=O)c2ccc(Cl)cc2)cc1	active: 5.22 µM	–
C#CCOCCOCCOCCNc1nc(N2CCN(C(=O)CCCCCCCCCCNC(=O)[C@H](CCCCN)n3cc(CCO)nn3)CC2)nc(N2CCN(C(=O)CCCCCCCCCCNC(=O)[C@@H]([C@H](C)O)n3cc(C)nn3)CC2)n1	inconclusive: 0.262 µM [inhibitor, full curve, poor fit]	–
COCC(C)NC(=O)c1cc2cc(OC)ccc2[nH]1 (stereo not drawn)	inactive	–
Cc1cc(C(F)(F)F)n2nc(-c3sccc3-n3cccc3)cc2n1	inconclusive: 0.0029 µM [inhibitor, full curve, poor fit]	–
Nc1ccccc1C(=O)Nc1nccs1	inactive	–
O=C(CSc1ncnc2c1nnn2Cc1ccccc1)NC1CCCC1	inconclusive: 2.08 µM [inhibitor, partial curve]	–
COc1cc2c(cc1OC)-c1cc(NC3CCCC3)nc(=O)n1CC2	–	inactive: 5.82% [at 5.75 µM]

Quoted at random: 3 compounds from above.
Compound	Potency	activity change, negative = inhibition
O=C(CCc1ccccc1)N/N=C/c1cc(Br)ccc1O	active: 6.57 µM	–
C#CCOCCOCCOCCNc1nc(N2CCN(C(=O)CCCCCCCCCCNC(=O)[C@H](CCCCN)n3cc(CCO)nn3)CC2)nc(N2CCN(C(=O)CCCCCCCCCCNC(=O)[C@@H]([C@H](C)O)n3cc(C)nn3)CC2)n1	inconclusive: 0.262 µM [inhibitor, full curve, poor fit]	–
NS(=O)(=O)c1ccc(O)c(N2C(=O)c3cccc4c(C(=O)O)ccc(c34)C2=O)c1	inactive	–

Reference: PubChem BioAssay AID504834 (National Center for Advancing Translational Sciences (NCATS), 2011)
